# PubChem BioAssay AID493014 (National Center for Advancing Translational Sciences (NCATS), 2011)
# The list shows a part of the results. The main result of the screen is listed elsewhere. These columns were measured beside it and carry no call. Most of these compounds were active or inconclusive in the main read-out, so they are no random draw. Potencies come from curve fits of mixed quality, noted in brackets.
# Experiment: qHTS Assay to Find Inhibitors of Chronic Active B-Cell Receptor Signaling
# Conditions: ABC-DLBCL IkBa-CBG/CBR reporter, luminescence ratio (green luciferase fused to IkBa over red control in TMD8 lymphoma cells), 4 h
# Method in brief: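 Concentration-response series (up to 46 uM) were applied to TMD8 dual-reporter cells for 4 h at 37C with doxycycline. Green/red ratio, after filter-overlap correction, defined %Activity; red signal alone was normalised to basal cells and zero luminescence.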
# [1] = measured here: CBR red luminescence, cell number
# [2] = measured here: IkBa-CBG green luminescence
smiles,measurement,setting,value
CC1=C(C#N)C(c2ccc3ncccc3c2)C(C#N)=C(C)N1,AC50,[1],"9.2 µM [rising, partial curve, poor fit]"
O=c1[nH]c2cc(Br)cnc2nc1/C=C(\O)c1ccc(F)cc1,AC50,[1],"0.631 µM [falling, full curve, poor fit]"
COc1cc(OC)cc(C(=O)NNC(=O)c2ccc3c(c2)OCCO3)c1,AC50,[1],"23.1 µM [falling, partial curve]"
CCOC(=O)C1CCCN(S(=O)(=O)c2ccc(Br)c(OC)c2)C1 (stereo not drawn),AC50,[1],"8.2 µM [falling, partial curve, poor fit]"
COc1ccc(C(=O)COC(=O)CCC(=O)c2cccs2)cc1,AC50,[1],"35.5 µM [falling, single point]"
CCC(c1nnnn1Cc1ccco1)N(Cc1cc2cc(OC)ccc2[nH]c1=O)C1CCCCC1 (stereo not drawn),AC50,[1],"23.1 µM [falling, partial curve]"
same,AC50,[2],"20.6 µM [rising, partial curve, poor fit]"
Cc1c(NC(=O)CSc2ccc(Cl)cc2)cccc1-c1nc2cc(Cl)ccc2o1,AC50,[1],"29.1 µM [rising, single point]"
CCOC(=O)N1CCN(S(=O)(=O)c2cc([N+](=O)[O-])c(C)cc2C)CC1,AC50,[1],"11.2 µM [rising, single point]"
Nc1c(NCc2ccccc2)c2ccccc2oc1=O,AC50,[1],"16.4 µM [falling, single point]"
O=C(CCN1C(=O)C2CCCCC2C1=O)Nc1nc(-c2ccc(F)c(F)c2)cs1 (stereo not drawn),AC50,[1],"10 µM [rising, partial curve, poor fit]"
CCOC(=O)C(=CNNc1cccc(Cl)c1)C(=O)OCC,AC50,[1],"35.5 µM [falling, single point]"
CC(=O)c1cc2c(cc1NC(=O)CCc1ccccc1)OCO2,AC50,[1],"29.1 µM [falling, partial curve, poor fit]"
N#Cc1nc(COc2ccc(F)cc2)oc1NCCN1CCOCC1,AC50,[1],"6.51 µM [rising, single point]"
CCO[C@H]1OC(C(=O)NCc2nc3ccccc3[nH]2)=C[C@@H](c2csc3ccccc23)[C@@H]1CCCO,AC50,[1],"12.6 µM [falling, single point]"
Cc1cc(OCC(=O)NCC(C)C)cc(C)c1Br,AC50,[1],"3.26 µM [rising, partial curve]"
COc1cc2c(cc1OC)C(c1ccccc1)N(C(=O)C(C)(C)C)CC2 (stereo not drawn),AC50,[1],"8.91 µM [falling, partial curve, poor fit]"
O=C(O)C1CCCCC1C(=O)Nc1ccc2c(c1)CCC2 (stereo not drawn),AC50,[1],"20.6 µM [rising, single point]"
COc1ccc(OC)c(NC(=O)CSC2=Nc3ccccc3C3=NC(CCC(=O)NCCc4ccccc4)C(=O)N23)c1 (stereo not drawn),AC50,[1],"12.6 µM [falling, partial curve, poor fit]"
Cc1ccc(Cl)cc1Nc1nc(-c2sc(NC(=O)C(C)(C)C)nc2C)cs1,AC50,[1],"12.6 µM [falling, partial curve]"
Cc1ccccc1C(=O)NCC(=O)OCCOc1ccc(C(C)C)c(C)c1,AC50,[1],"16.4 µM [rising, partial curve, poor fit]"
CC(=O)c1cc(-c2ccccc2)n(CCC(=O)NC2CCCCCC2)c1C,AC50,[1],"0.651 µM [rising, single point]"
COc1ccc2ccccc2c1/C=N/NC(=O)c1ccccc1F,AC50,[1],"35.5 µM [falling, single point]"
CCCCOc1ccccc1NC(=O)CSc1nnnn1C(C)(C)C,AC50,[1],"11.2 µM [falling, partial curve, poor fit]"
COc1ccc(-c2nnc(NC(=O)CSc3ccccc3)s2)cc1OC,AC50,[1],"11.6 µM [rising, partial curve, poor fit]"
CCN(CC(=O)Nc1cccc(S(=O)(=O)N2CCCCC2)c1)Cc1ccccc1,AC50,[1],"8.2 µM [falling, partial curve]"
CC1(C)Cc2ccccc2-c2nc(-c3ccccc3)oc(=O)c21,AC50,[1],"20.6 µM [rising, single point]"
CC(=O)Nc1sc(N/N=C\c2ccccc2Cl)nc1-c1cccs1,AC50,[1],"16.4 µM [falling, single point]"
Cn1nnnc1SCC(=O)Nc1nc2c(s1)CCCC2,AC50,[1],"16.4 µM [rising, partial curve, poor fit]"
Cc1noc(/C=C/c2ccco2)c1S(=O)(=O)N1CCC(C(=O)N2CCc3ccccc3C2)CC1,AC50,[1],"10 µM [rising, partial curve]"
CN(C)C(C)(C)/C=C/C(O)(c1ccccc1)c1ccccc1,AC50,[1],"35.5 µM [falling, single point]"
CCCCC(=O)Nc1ccc(Cl)cn1,AC50,[1],"0.708 µM [rising, partial curve, poor fit]"
Cc1ccc(C(=O)Nc2ccnc(-c3ccncc3)n2)cc1,AC50,[1],"5.01 µM [rising, full curve, poor fit]"
O=C(NC1CCCC1)C1CCCN1S(=O)(=O)c1cccc2cccnc12 (stereo not drawn),AC50,[1],"20.6 µM [falling, single point]"
Cc1cnc(NC(=O)CSc2nnc(C)s2)s1,AC50,[1],"20.6 µM [falling, single point]"
COC(=O)CCCNC(=O)c1ccccn1,AC50,[1],"35.5 µM [rising, single point]"
same,AC50,[2],"25.1 µM [falling, single point]"
COC(=O)C1=C(C)NC=C([N+](=O)[O-])C1c1ccc(OC)cc1 (stereo not drawn),AC50,[1],"29.1 µM [rising, single point]"
S=C(NCc1ccccn1)Nc1ccccc1,AC50,[1],"3.66 µM [rising, full curve]"
CC(C)N(Cc1nnc(-c2ccc(Cl)cc2)o1)C(=O)C1=COCCO1,AC50,[1],"0.00461 µM [rising, full curve, poor fit]"
O=C(Nc1cccc(-c2ccc(F)cc2)c1)C1CCCN(Cc2cccnc2)C1 (stereo not drawn),AC50,[1],"8.91 µM [falling, single point]"
CCOc1cc(/C=N/NC(=O)c2ccc3c(c2)OCCO3)cc(Br)c1O,AC50,[1],"12.6 µM [falling, partial curve, poor fit]"
Cc1ccc(NC(=O)c2ccc(-n3cccn3)c([N+](=O)[O-])c2)cc1C,AC50,[1],"20 µM [falling, single point]"

# Ten entries from above, with bars between the fields.
smiles | measurement | setting | value
COc1cc2c(cc1OC)C(c1ccccc1)N(C(=O)C(C)(C)C)CC2 (stereo not drawn) | AC50 | [1] | 8.91 µM [falling, partial curve, poor fit]
O=C(O)C1CCCCC1C(=O)Nc1ccc2c(c1)CCC2 (stereo not drawn) | AC50 | [1] | 20.6 µM [rising, single point]
COc1ccc(OC)c(NC(=O)CSC2=Nc3ccccc3C3=NC(CCC(=O)NCCc4ccccc4)C(=O)N23)c1 (stereo not drawn) | AC50 | [1] | 12.6 µM [falling, partial curve, poor fit]
Cc1ccc(Cl)cc1Nc1nc(-c2sc(NC(=O)C(C)(C)C)nc2C)cs1 | AC50 | [1] | 12.6 µM [falling, partial curve]
Cc1ccccc1C(=O)NCC(=O)OCCOc1ccc(C(C)C)c(C)c1 | AC50 | [1] | 16.4 µM [rising, partial curve, poor fit]
CC(=O)c1cc(-c2ccccc2)n(CCC(=O)NC2CCCCCC2)c1C | AC50 | [1] | 0.651 µM [rising, single point]
COc1ccc2ccccc2c1/C=N/NC(=O)c1ccccc1F | AC50 | [1] | 35.5 µM [falling, single point]
CCCCOc1ccccc1NC(=O)CSc1nnnn1C(C)(C)C | AC50 | [1] | 11.2 µM [falling, partial curve, poor fit]
COc1ccc(-c2nnc(NC(=O)CSc3ccccc3)s2)cc1OC | AC50 | [1] | 11.6 µM [rising, partial curve, poor fit]
CCN(CC(=O)Nc1cccc(S(=O)(=O)N2CCCCC2)c1)Cc1ccccc1 | AC50 | [1] | 8.2 µM [falling, partial curve]
